According to paper PMC4844120:
These are yes or no findings as the source states them, for the method shown.

By UniProt entry, the sequences of proteins in these tests, tags left out. Residues count along the entry.
UniProt Q13231, residues 22-466: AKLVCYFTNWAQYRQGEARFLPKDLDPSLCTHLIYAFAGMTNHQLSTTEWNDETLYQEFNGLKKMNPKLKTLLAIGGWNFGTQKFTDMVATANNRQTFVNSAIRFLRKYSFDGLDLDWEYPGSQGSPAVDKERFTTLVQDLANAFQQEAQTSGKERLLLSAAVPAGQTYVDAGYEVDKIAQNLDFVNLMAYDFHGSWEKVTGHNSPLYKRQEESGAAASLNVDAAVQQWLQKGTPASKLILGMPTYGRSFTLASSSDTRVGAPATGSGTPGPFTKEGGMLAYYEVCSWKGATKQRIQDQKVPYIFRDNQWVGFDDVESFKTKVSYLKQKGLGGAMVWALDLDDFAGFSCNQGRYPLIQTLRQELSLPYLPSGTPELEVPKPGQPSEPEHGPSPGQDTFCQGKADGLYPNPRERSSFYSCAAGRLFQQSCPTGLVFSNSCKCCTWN

Experiments:
[1] = target: Human chitotriosidase, full length (CHIT1-FL), 50 kDa secreted isoform (human) (UniProt Q13231); experiment: SEC; Superdex 200 HR 16/60 in 10 mM HEPES, 150 mM NaCl pH 7.5; elution peak during purification; both purified
[2] = target: Human chitotriosidase, full length (CHIT1-FL), 50 kDa secreted isoform (human) (UniProt Q13231); experiment: crystal structure; X-ray, 1.95 Å, space group P2_(1), two CHIT1-FL molecules in the asymmetric unit; both purified
[3] = target: Human chitotriosidase, full length (CHIT1-FL), 50 kDa secreted isoform (human) (UniProt Q13231); experiment: native MS; ESI-MS (time-of-flight) of native CHIT1-FL, negative-ion mode; desalted in 50 mM ammonium acetate; both purified

- binding [1]: no binding
- binding [2]: no binding
- binding [3]: no binding
Substance: Human chitotriosidase, full length (CHIT1-FL), 50 kDa secreted isoform (from UniProt Q13231 22-466) (enzyme)
